Assay results reported in patent publication US20110039845A1, “2-AMINOQUINAZOLINE DERIVATIVE” (KYOWA HAKKO KIRIN CO., LTD., priority 2008, published 2011).
Some entries share one result that the patent states for a list of compounds.

Protein sequences, listed by entry. Tags and fused reporters are not part of them. Residues count along the entry.
UniProt Q02763, 771-1124: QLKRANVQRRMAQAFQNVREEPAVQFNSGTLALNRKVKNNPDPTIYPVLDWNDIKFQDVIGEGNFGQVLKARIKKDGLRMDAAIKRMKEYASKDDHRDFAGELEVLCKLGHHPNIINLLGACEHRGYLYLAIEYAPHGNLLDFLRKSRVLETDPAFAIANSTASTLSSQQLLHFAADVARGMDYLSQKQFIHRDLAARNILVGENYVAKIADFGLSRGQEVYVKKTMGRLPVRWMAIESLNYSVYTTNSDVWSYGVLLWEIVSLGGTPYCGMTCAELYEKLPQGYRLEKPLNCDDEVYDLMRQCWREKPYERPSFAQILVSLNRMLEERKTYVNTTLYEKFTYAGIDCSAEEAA
UniProt P35968, 790-1356 limits assumed: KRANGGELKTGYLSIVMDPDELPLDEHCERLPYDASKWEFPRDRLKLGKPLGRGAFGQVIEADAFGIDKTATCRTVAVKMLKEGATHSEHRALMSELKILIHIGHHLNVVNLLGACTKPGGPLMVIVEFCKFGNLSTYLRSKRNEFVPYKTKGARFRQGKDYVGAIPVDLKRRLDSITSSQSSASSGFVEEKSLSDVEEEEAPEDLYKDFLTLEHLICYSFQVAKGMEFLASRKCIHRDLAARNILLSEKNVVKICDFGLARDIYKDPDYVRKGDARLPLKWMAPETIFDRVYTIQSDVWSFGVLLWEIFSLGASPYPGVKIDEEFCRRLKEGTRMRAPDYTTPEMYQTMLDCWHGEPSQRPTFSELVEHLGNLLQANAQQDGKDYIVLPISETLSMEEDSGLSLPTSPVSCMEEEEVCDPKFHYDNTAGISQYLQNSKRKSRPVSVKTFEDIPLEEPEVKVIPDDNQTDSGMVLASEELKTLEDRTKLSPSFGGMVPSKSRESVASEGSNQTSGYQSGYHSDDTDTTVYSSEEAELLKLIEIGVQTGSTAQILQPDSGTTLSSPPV

Legend:
human Tie-2 = target: T1, human Tie-2 (Homo sapiens, UniProt Q02763); assay: Tie-2 enzyme inhibitory activity (DELFIA time-resolved fluorescence kinase assay); format: biochemical; details: functional domain of human Tie-2, 50 μmol/L ATP, 30° C. 40 minutes
T1 construct: Functional domain of human Tie-2 (771-1124 end amino acid); purchased Carna Biosicence Inc. 08-285

human KDR = target: T2, human KDR (Homo sapiens, UniProt P35968); assay: KDR enzyme inhibitory activity (DELFIA time-resolved fluorescence kinase assay); format: biochemical; details: selectivity for Tie-2 kinase over KDR
T2 construct: functional domain of human KDR (amino acid 790-end); purchased Upstate Inc. 14-630

## Cc1ccc(C(=O)Nc2cc(C(F)(F)F)ccn2)cc1-c1cc2cnc(N)nc2c(-c2cnc(N3CCCC3)nc2)c1O [Compound 257, 2-Amino-7-hydroxy-6-[2-methyl-5-N-(4-trifluoromethylpyridin-2-yl)carbamoylphenyl]-8-[2-(pyrrolidin-1-yl)pyrimidin-5-yl]quinazoline]
Human Tie-2
  IC50: ≤ 20 nM
Human KDR
  ratio of KDR IC50/Tie-2 IC50: ≥ 20

## Cc1ccc(C(=O)Nc2cc(C(F)(F)F)ccn2)cc1-c1cc2cnc(N)nc2c(-c2cnc(N3CCOCC3)nc2)c1O [Compound 258, 2-Amino-7-hydroxy-6-[2-methyl-5-N-(4-trifluoromethylpyridin-2-yl)carbamoylphenyl]-8-[2-(morpholino)pyrimidin-5-yl]quinazoline]
Human Tie-2
  IC50: ≤ 20 nM
Human KDR
  ratio of KDR IC50/Tie-2 IC50: ≥ 20

## Cc1ccc(C(=O)Nc2cc(C(F)(F)F)ccn2)cc1-c1cc2cnc(N)nc2c(-c2cnn(C)c2)c1O [Compound 259, 2-Amino-7-hydroxy-8-(1-methyl-1H-pyrazol-4-yl)-6-[2-methyl-5-N-(4-trifluoromethylpyridin-2-yl)carbamoylphenyl]quinazoline]
Human Tie-2
  IC50: ≤ 20 nM
Human KDR
  ratio of KDR IC50/Tie-2 IC50: ≥ 20

## Cc1ccc(C(=O)Nc2cc(C(F)(F)F)ccn2)cc1-c1cc2cnc(N)nc2c(-c2ccccn2)c1O [Compound 260, 2-Amino-7-hydroxy-6-[2-methyl-5-N-(4-trifluoromethylpyridin-2-yl)carbamoylphenyl]-8-(pyridin-2-yl)quinazoline]
Human Tie-2
  IC50: ≤ 20 nM
Human KDR
  ratio of KDR IC50/Tie-2 IC50: ≥ 20

## Cc1ccc(C(=O)Nc2cc(C(F)(F)F)ccn2)cc1-c1cc2cnc(N)nc2c(-c2ccnc(Cl)c2)c1O [Compound 261, 2-Amino-8-(2-chloropyridin-4-yl)-7-hydroxy-6-[2-methyl-5-N-(4-trifluoromethylpyridin-2-yl)carbamoylphenyl]quinazoline]
Human Tie-2
  IC50: ≤ 20 nM
Human KDR
  ratio of KDR IC50/Tie-2 IC50: ≥ 20

## Cc1ccc(NC(=O)c2cc(C(F)(F)F)ccn2)cc1-c1cc2cnc(N)nc2c(-c2cccc(C#N)c2)c1O [Compound 262, 2-Amino-8-(3-cyanophenyl)-7-hydroxy-6-[2-methyl-5-(4-trifluoromethylpicolinamide)phenyl]quinazoline]
Human Tie-2
  IC50: ≤ 20 nM
Human KDR
  ratio of KDR IC50/Tie-2 IC50: ≥ 20

## COc1c(-c2cc(C(=O)Nc3cc(C(F)(F)F)ccn3)ccc2C)cc2cnc(N[C@@H](C)CO)nc2c1-c1cccnc1 [Compound 263, (S)-2-(1-Hydroxypropan-2-ylamino)-7-methoxy-6-[2-methyl-5-N-(4-trifluoromethylpyridin-2-yl)carbamoylphenyl]-8-(pyridin-3-yl)quinazoline]
Human Tie-2
  IC50: ≤ 20 nM
Human KDR
  ratio of KDR IC50/Tie-2 IC50: ≥ 20

## COc1c(-c2cc(C(=O)Nc3cc(C(F)(F)F)ccn3)ccc2C)cc2cnc(N[C@@H](C)CO)nc2c1-c1ccncc1 [Compound 264, (S)-2-(1-Hydroxypropan-2-ylamino)-7-methoxy-6-[2-methyl-5-N-(4-trifluoromethylpyridin-2-yl)carbamoylphenyl]-8-(pyridin-4-yl)quinazoline]
Human Tie-2
  IC50: ≤ 20 nM
Human KDR
  ratio of KDR IC50/Tie-2 IC50: ≥ 20

## Cc1ccc(C(=O)Nc2cc(C(F)(F)F)ccn2)cc1-c1cc2cnc(N[C@@H](C)CO)nc2c(-c2cncnc2)c1O [Compound 265, (S)-7-Hydroxy-2-(1-hydroxypropan-2-ylamino)-6-[2-methyl-5-N-(4-trifluoromethylpyridin-2-yl)carbamoylphenyl]-8-(pyrimidin-5-yl)quinazoline]
Human Tie-2
  IC50: ≤ 20 nM
Human KDR
  ratio of KDR IC50/Tie-2 IC50: ≥ 20

## Cc1ccc(C(=O)Nc2cc(C(F)(F)F)ccn2)cc1-c1cc2cnc(N[C@@H](C)CO)nc2c(-c2cccnc2)c1O [Compound 266, (S)-7-Hydroxy-2-(1-hydroxypropan-2-ylamino)-6-[2-methyl-5-N-(4-trifluoromethylpyridin-2-yl)carbamoylphenyl]-8-(pyridin-3-yl)quinazoline]
Human Tie-2
  IC50: ≤ 20 nM
Human KDR
  ratio of KDR IC50/Tie-2 IC50: ≥ 20

## Cc1ccc(C(=O)Nc2cc(C(F)(F)F)ccn2)cc1-c1cc2cnc(N[C@@H](C)CO)nc2c(-c2ccncc2)c1O [Compound 267, (S)-7-Hydroxy-2-(1-hydroxypropan-2-ylamino)-6-[2-methyl-5-N-(4-trifluoromethylpyridin-2-yl)carbamoylphenyl]-8-(pyridin-4-yl)quinazoline]
Human Tie-2
  IC50: ≤ 20 nM
Human KDR
  ratio of KDR IC50/Tie-2 IC50: ≥ 20

## Cc1ccc(C(=O)Nc2cc(C(F)(F)F)ccn2)cc1-c1cc2cnc(N)nc2c(-c2ccnc(N3CCOC3=O)c2)c1O [Compound 268, 2-Amino-7-hydroxy-6-[2-methyl-5-N-(4-trifluoromethylpyridin-2-yl)carbamoylphenyl]-8-[2-(1,3-oxazolidin-2-on-3-yl)pyridin-4-yl]quinazoline]
Human Tie-2
  IC50: ≤ 20 nM
Human KDR
  ratio of KDR IC50/Tie-2 IC50: ≥ 20

## Cc1ccc(C(=O)Nc2cc(C(F)(F)F)ncn2)cc1-c1cc2cnc(N)nc2c(-c2cccnc2)c1O [Compound 269, 2-Amino-7-hydroxy-6-[2-methyl-5-N-(4-trifluoromethylpyrimidin-6-yl)carbamoylphenyl]-8-(pyridin-3-yl)quinazoline]
Human Tie-2
  IC50: ≤ 20 nM
Human KDR
  ratio of KDR IC50/Tie-2 IC50: ≥ 20

## Cc1ccc(C(=O)Nc2cc(C(F)(F)F)ncn2)cc1-c1cc2cnc(N)nc2c(-c2ccncc2)c1O [Compound 270, 2-Amino-7-hydroxy-6-[2-methyl-5-N-(4-trifluoromethylpyrimidin-6-yl)carbamoylphenyl]-8-(pyridin-4-yl)quinazoline]
Human Tie-2
  IC50: ≤ 20 nM
Human KDR
  ratio of KDR IC50/Tie-2 IC50: ≥ 20

## Cc1ccc(C(=O)Nc2cc(C(F)(F)F)ncn2)cc1-c1cc2cnc(N)nc2c(-c2ccccn2)c1O [Compound 271, 2-Amino-7-hydroxy-6-[2-methyl-5-N-(4-trifluoromethylpyrimidin-6-yl)carbamoylphenyl]-8-(pyridin-2-yl)quinazoline]
Human Tie-2
  IC50: ≤ 20 nM
Human KDR
  ratio of KDR IC50/Tie-2 IC50: ≥ 20

## Cc1ccc(C(=O)Nc2nccc(C(F)(F)F)n2)cc1-c1cc2cnc(N)nc2c(-c2cccnc2)c1O [Compound 272, 2-Amino-7-hydroxy-6-[2-methyl-5-N-(4-trifluoromethylpyrimidin-2-yl)carbamoylphenyl]-8-(pyridin-3-yl)quinazoline]
Human Tie-2
  IC50: ≤ 20 nM
Human KDR
  ratio of KDR IC50/Tie-2 IC50: ≥ 20

## Cc1ccc(C(=O)Nc2cc(C(F)(F)F)ccn2)cc1-c1cc2cnc(N)nc2c(-c2ccc(O)cc2)c1O [Compound 273, 2-Amino-7-hydroxy-8-(4-hydroxyphenyl)-6-[2-methyl-5-N-(4-trifluoromethylpyridin-2-yl)carbamoylphenyl]quinazoline]
Human Tie-2
  IC50: ≤ 20 nM
Human KDR
  ratio of KDR IC50/Tie-2 IC50: ≥ 20

## Cc1ccc(C(=O)Nc2cc(C(F)(F)F)ccn2)cc1-c1cc2cnc(N)nc2c(-c2cnccn2)c1O [Compound 274, 2-Amino-7-hydroxy-6-[2-methyl-5-N-(4-trifluoromethylpyridin-2-yl)carbamoylphenyl]-8-(pyrazin-2-yl)quinazoline]
Human Tie-2
  IC50: ≤ 20 nM
Human KDR
  ratio of KDR IC50/Tie-2 IC50: ≥ 20

## Cc1ccc(C(=O)Nc2cccc(C(F)(F)F)c2)cc1-c1cc2cnc(N)nc2c(-c2ccc(O)cc2)c1O [Compound 275, 2-Amino-7-hydroxy-8-(4-hydroxyphenyl)-6-[2-methyl-5-N-(3-trifluoromethylphenyl)carbamoylphenyl]quinazoline]
Human Tie-2
  IC50: ≤ 20 nM
Human KDR
  ratio of KDR IC50/Tie-2 IC50: ≥ 20
